Taken from: PubChem BioAssay AID1224830 (NIAID, 2016)
Shown is one part, drawn at random, of about 18,000 reagents. About 2,900 of all reagents (16%) were called active. 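Calls are made per well; low scores hint the gene aids the LPS response, high scores that it dampens it.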 Repeated entries: four replicate wells of each siRNA pool. Reagent sequences are not shown.

Purpose: 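Regulators of TLR4 signalling towards TNF-alpha in macrophage-like cells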 (primary screen)
Cell system: human THP-1 monocytic leukaemia cells, TNF dual-luciferase reporter clone, PMA-differentiated to macrophage-like cells
Reagent: siRNA pool against human genes, 50 nM
Duration: LPS for 4 h, given about 3 days after siRNA transfection
Conditions: bacterial LPS (TLR4 ligand), 10 ng/ml
Read-out: 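Ratio of firefly to renilla light, scaled to the plate median and expressed as a robust z-score per replicate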
Direction: TNF reporter robust z-score: higher = stronger TNF reporter response to LPS
Hit rule: 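Each well counts as active if its z-score is over 2.8 or under -1.5; controls are left without a call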

Against CRYZL1 (crystallin zeta like 1), the values are TNF reporter robust z-score -0.14; inactive.
Depletion of CRYZL1 (crystallin zeta like 1) resulted in: TNF reporter robust z-score 1.06; inactive.
After knock-down of CRYZL1 (crystallin zeta like 1), the screen gave TNF reporter robust z-score 0.31; inactive.
For CRYZL1 (crystallin zeta like 1) the deposit lists TNF reporter robust z-score 0.75; inactive.
CD74 (CD74 molecule) gave TNF reporter robust z-score -1.92; active.
Silencing of CD74 (CD74 molecule) gave: TNF reporter robust z-score -0.44; inactive.
Knock-down of CD74 (CD74 molecule) resulted in: TNF reporter robust z-score 1.41; inactive.
Silencing of CD74 (CD74 molecule) came out at: TNF reporter robust z-score -0.02; inactive.
For OR9A2 (olfactory receptor family 9 subfamily A member 2), the entry reads TNF reporter robust z-score 0.26; inactive.
Knock-down of OR9A2 (olfactory receptor family 9 subfamily A member 2) came out at: TNF reporter robust z-score 0.51; inactive.
Depletion of OR9A2 (olfactory receptor family 9 subfamily A member 2) resulted in: TNF reporter robust z-score 0.1; inactive.
Silencing of OR9A2 (olfactory receptor family 9 subfamily A member 2) came out at: TNF reporter robust z-score 3.54; active.
PRR3 (proline rich 3) gave TNF reporter robust z-score 0.64; inactive.
For PRR3 (proline rich 3), the entry reads TNF reporter robust z-score 1; inactive.
Depletion of PRR3 (proline rich 3) came out at: TNF reporter robust z-score 0.15; inactive.
Against PRR3 (proline rich 3), the values are TNF reporter robust z-score 1.21; inactive.
XBP1 (X-box binding protein 1) showed TNF reporter robust z-score -0.29; inactive.
For XBP1 (X-box binding protein 1) the deposit lists TNF reporter robust z-score -0.69; inactive.
Silencing of XBP1 (X-box binding protein 1) resulted in: TNF reporter robust z-score -0.33; inactive.
With knock-down of XBP1 (X-box binding protein 1), the screen gave TNF reporter robust z-score -0.85; inactive.
For FAM151B (family with sequence similarity 151 member B), the entry reads TNF reporter robust z-score -0.64; inactive.
After knock-down of FAM151B (family with sequence similarity 151 member B), the record shows TNF reporter robust z-score -0.99; inactive.
With knock-down of FAM151B (family with sequence similarity 151 member B), the record shows TNF reporter robust z-score -0.78; inactive.
With knock-down of FAM151B (family with sequence similarity 151 member B), the screen gave TNF reporter robust z-score 0.01; inactive.
For PDE6D (phosphodiesterase 6D) the deposit lists TNF reporter robust z-score -0.4; inactive.
PDE6D (phosphodiesterase 6D) scored TNF reporter robust z-score 0.12; inactive.
Against PDE6D (phosphodiesterase 6D), the values are TNF reporter robust z-score -0.42; inactive.
After knock-down of PDE6D (phosphodiesterase 6D) the results were TNF reporter robust z-score -0.91; inactive.
DNAL1 (dynein axonemal light chain 1) scored TNF reporter robust z-score 0.31; inactive.
DNAL1 (dynein axonemal light chain 1) showed TNF reporter robust z-score 0.33; inactive.
After knock-down of DNAL1 (dynein axonemal light chain 1) the results were TNF reporter robust z-score 0.29; inactive.
DNAL1 (dynein axonemal light chain 1) gave TNF reporter robust z-score 0.44; inactive.
Silencing of BHLHA15 (basic helix-loop-helix family member a15) came out at: TNF reporter robust z-score -0.65; inactive.
BHLHA15 (basic helix-loop-helix family member a15) showed TNF reporter robust z-score 0.41; inactive.
Depletion of BHLHA15 (basic helix-loop-helix family member a15) gave: TNF reporter robust z-score 0.29; inactive.
After knock-down of BHLHA15 (basic helix-loop-helix family member a15), the record shows TNF reporter robust z-score 0.82; inactive.
CPSF3 (cleavage and polyadenylation specific factor 3) scored TNF reporter robust z-score 0.14; inactive.
After knock-down of CPSF3 (cleavage and polyadenylation specific factor 3) the results were TNF reporter robust z-score 0.05; inactive.
For CPSF3 (cleavage and polyadenylation specific factor 3), the values are TNF reporter robust z-score 0.08; inactive.
CPSF3 (cleavage and polyadenylation specific factor 3) scored TNF reporter robust z-score 0.01; inactive.
MFSD12 (major facilitator superfamily domain containing 12) gave TNF reporter robust z-score 0.24; inactive.
After knock-down of MFSD12 (major facilitator superfamily domain containing 12), the screen gave TNF reporter robust z-score 2.84; active.
After knock-down of MFSD12 (major facilitator superfamily domain containing 12), the record shows TNF reporter robust z-score 1.56; inactive.
Silencing of MFSD12 (major facilitator superfamily domain containing 12) gave: TNF reporter robust z-score 2.29; inactive.
COX19 (cytochrome c oxidase assembly factor COX19) gave TNF reporter robust z-score 0.72; inactive.
Depletion of COX19 (cytochrome c oxidase assembly factor COX19) came out at: TNF reporter robust z-score 0.92; inactive.
Depletion of COX19 (cytochrome c oxidase assembly factor COX19) resulted in: TNF reporter robust z-score -0.11; inactive.
With knock-down of COX19 (cytochrome c oxidase assembly factor COX19), the record shows TNF reporter robust z-score 1.19; inactive.

Part of the list above, reformatted:
target gene	TNF reporter robust z-score	outcome
PRR3 (proline rich 3)	1.21	inactive
XBP1 (X-box binding protein 1)	-0.29	inactive
XBP1 (X-box binding protein 1)	-0.69	inactive
